The target in the experiment is low-density lipoprotein receptor-related protein-1 (LRP-1) β-chain (human (endogenous in FTC133)) (UniProt Q07954). Briefly: co-IP; LRP-1-containing complexes precipitated with anti-LRP-1 α-chain antibody (8G1) and protein G-Sepharose from 500 µg FTC133 cell extract (10 mM Tris-HCl pH 7.4, 150 mM NaCl, 5 mM EDTA, 0.1% Triton X-100), 4°C; immunoblot; nonspecific IgGs as negative control. On the technique in general: In western blotting, separated proteins are transferred to a membrane and probed.

The chains behind the UniProt entries cited, without tags or fusion partners. Where a name states a change or a piece, a line headed by the entry shows the natural chain unless it says otherwise. Residues count along the entry.
UniProt Q07954, residues 3944-4544: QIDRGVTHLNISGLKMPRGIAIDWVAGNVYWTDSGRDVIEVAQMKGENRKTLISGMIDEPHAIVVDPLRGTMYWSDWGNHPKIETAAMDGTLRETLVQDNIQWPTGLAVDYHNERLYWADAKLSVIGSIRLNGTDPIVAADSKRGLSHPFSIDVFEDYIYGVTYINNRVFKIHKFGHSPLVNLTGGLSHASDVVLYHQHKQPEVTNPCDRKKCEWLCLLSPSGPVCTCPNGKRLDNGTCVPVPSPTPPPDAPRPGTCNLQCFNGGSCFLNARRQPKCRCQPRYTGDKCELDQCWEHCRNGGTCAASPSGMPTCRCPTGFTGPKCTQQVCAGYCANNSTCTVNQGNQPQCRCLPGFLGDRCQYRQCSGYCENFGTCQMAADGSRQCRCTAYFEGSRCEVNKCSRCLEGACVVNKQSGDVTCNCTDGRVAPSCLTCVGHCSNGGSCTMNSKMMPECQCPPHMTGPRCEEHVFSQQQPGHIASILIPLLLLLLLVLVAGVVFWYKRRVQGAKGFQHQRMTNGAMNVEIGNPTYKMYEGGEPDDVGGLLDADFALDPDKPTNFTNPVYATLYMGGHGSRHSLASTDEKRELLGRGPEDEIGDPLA
UniProt P67775: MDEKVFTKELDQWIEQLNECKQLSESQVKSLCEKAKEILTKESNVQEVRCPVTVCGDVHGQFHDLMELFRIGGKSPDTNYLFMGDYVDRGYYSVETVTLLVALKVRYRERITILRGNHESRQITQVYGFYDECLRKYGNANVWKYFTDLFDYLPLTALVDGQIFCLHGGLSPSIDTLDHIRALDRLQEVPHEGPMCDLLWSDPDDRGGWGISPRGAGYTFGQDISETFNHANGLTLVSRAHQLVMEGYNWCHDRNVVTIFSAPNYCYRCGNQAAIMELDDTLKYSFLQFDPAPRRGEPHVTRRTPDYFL

Results are given in words; binding and its absence hold for the method and conditions named. Binding seen in cells or lysates may run through a third protein. A result given as binding can be weak or reduced; the word gives no strength.

“PP2A (serine/threonine protein phosphatase 2A) (from UniProt P67775) (enzyme)”: the binding entry is given as “binds”.

These data come from PMC2904376.
